Assay results taken from ChEMBL document CHEMBL5674883, “The Heterochromatin Landscape in Migrating Cells and the Importance of H3K27me3 for Associated Transcriptome Alterations” (Cells, 2018).
Further values from the same series stand in other lists.

Sequences of proteins named here, by UniProt entry; tags and fusion partners are left off.
UniProt Q61188, whole entry: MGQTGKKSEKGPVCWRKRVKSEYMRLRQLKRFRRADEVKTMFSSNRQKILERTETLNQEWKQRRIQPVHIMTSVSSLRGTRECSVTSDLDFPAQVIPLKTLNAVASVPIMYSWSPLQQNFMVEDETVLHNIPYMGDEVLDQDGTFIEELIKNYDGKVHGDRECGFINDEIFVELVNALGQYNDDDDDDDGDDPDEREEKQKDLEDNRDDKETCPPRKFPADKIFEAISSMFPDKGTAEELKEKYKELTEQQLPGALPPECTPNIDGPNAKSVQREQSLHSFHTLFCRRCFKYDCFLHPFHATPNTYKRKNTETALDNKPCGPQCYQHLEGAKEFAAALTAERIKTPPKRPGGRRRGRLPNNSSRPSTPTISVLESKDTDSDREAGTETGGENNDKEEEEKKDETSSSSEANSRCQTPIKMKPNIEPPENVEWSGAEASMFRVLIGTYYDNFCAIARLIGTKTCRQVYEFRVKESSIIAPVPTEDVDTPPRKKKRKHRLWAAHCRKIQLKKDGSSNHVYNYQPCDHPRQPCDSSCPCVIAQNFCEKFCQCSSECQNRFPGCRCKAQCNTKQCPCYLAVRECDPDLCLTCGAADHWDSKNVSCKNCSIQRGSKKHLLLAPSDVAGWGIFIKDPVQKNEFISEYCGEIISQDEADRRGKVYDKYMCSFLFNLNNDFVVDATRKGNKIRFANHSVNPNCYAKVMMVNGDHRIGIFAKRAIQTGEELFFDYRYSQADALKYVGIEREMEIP

How the values were obtained:
Assay type in all cases: cell-based
[1] = molecular target: Histone-lysine N-methyltransferase EZH2 (Mus musculus) (UniProt Q61188); test: Inhibition of EZH2 in mouse B16-F1 migrating cells assessed as fold change in H3K27me3-buffered regulated Hlf-mRNA expression at 3 uM measured by ChIP-seq analysis relative to control cells
[2] = molecular target: Histone-lysine N-methyltransferase EZH2 (Mus musculus) (UniProt Q61188); test: Inhibition of EZH2 in mouse B16-F1 migrating cells assessed as fold change in H3K27me3-buffered regulated Plekhg2-mRNA expression at 3 uM measured by ChIP-seq analysis relative to control cells
[3] = molecular target: Histone-lysine N-methyltransferase EZH2 (Mus musculus) (UniProt Q61188); test: Inhibition of EZH2 in mouse B16-F1 migrating cells assessed as fold change in H3K27me3-buffered regulated Dennd2a-mRNA expression at 3 uM measured by ChIP-seq analysis relative to control cells
[4] = molecular target: Histone-lysine N-methyltransferase EZH2 (Mus musculus) (UniProt Q61188); test: Inhibition of EZH2 in mouse B16-F1 migrating cells assessed as fold change in H3K27me3-buffered regulated Polq-mRNA expression at 3 uM measured by ChIP-seq analysis relative to control cells
[5] = molecular target: Histone-lysine N-methyltransferase EZH2 (Mus musculus) (UniProt Q61188); test: Inhibition of EZH2 in mouse B16-F1 migrating cells assessed as fold change in H3K27me3-buffered regulated Cdk6-mRNA expression at 3 uM measured by ChIP-seq analysis relative to control cells
[6] = molecular target: Histone-lysine N-methyltransferase EZH2 (Mus musculus) (UniProt Q61188); test: Inhibition of EZH2 in mouse B16-F1 migrating cells assessed as fold change in H3K27me3-buffered regulated Gm2115-mRNA expression at 3 uM measured by ChIP-seq analysis relative to control cells
[7] = molecular target: Histone-lysine N-methyltransferase EZH2 (Mus musculus) (UniProt Q61188); test: Inhibition of EZH2 in mouse B16-F1 migrating cells assessed as fold change in H3K27me3-buffered regulated Dlc1-mRNA expression at 3 uM measured by ChIP-seq analysis relative to control cells
[8] = molecular target: Histone-lysine N-methyltransferase EZH2 (Mus musculus) (UniProt Q61188); test: Inhibition of EZH2 in mouse B16-F1 migrating cells assessed as fold change in H3K27me3-buffered regulated Wfikkn2-mRNA expression at 3 uM measured by ChIP-seq analysis relative to control cells
[9] = molecular target: Histone-lysine N-methyltransferase EZH2 (Mus musculus) (UniProt Q61188); test: Inhibition of EZH2 in mouse B16-F1 migrating cells assessed as fold change in H3K27me3-buffered regulated 9930021J03Rik-mRNA expression at 3 uM measured by ChIP-seq analysis relative to control cells
[10] = molecular target: Histone-lysine N-methyltransferase EZH2 (Mus musculus) (UniProt Q61188); test: Inhibition of EZH2 in mouse B16-F1 migrating cells assessed as fold change in H3K27me3-buffered regulated Cxcl10-mRNA expression at 3 uM measured by ChIP-seq analysis relative to control cells
[11] = molecular target: Histone-lysine N-methyltransferase EZH2 (Mus musculus) (UniProt Q61188); test: Inhibition of EZH2 in mouse B16-F1 migrating cells assessed as fold change in H3K27me3-dependent regulated Ppm1e-mRNA expression at 3 uM measured by ChIP-seq analysis relative to control cells
[12] = molecular target: Histone-lysine N-methyltransferase EZH2 (Mus musculus) (UniProt Q61188); test: Inhibition of EZH2 in mouse B16-F1 migrating cells assessed as fold change in H3K27me3-dependent regulated Gm47854-mRNA expression at 3 uM measured by ChIP-seq analysis relative to control cells
[13] = molecular target: Histone-lysine N-methyltransferase EZH2 (Mus musculus) (UniProt Q61188); test: Inhibition of EZH2 in mouse B16-F1 migrating cells assessed as fold change in H3K27me3-independent regulated Slc2a1-mRNA expression at 3 uM measured by ChIP-seq analysis relative to control cells
[14] = molecular target: T1, RNA polymerase II (Mus musculus) (UniProt P08775+Q8CFI7+P97760+A0A3Q4L2S8+Q80UW8+P61219+P62488+Q923G2+P60898+O08740+Q63871+P62876); test: Inhibition of RNA polymerase II in mouse B16-F1 migrating cells assessed as fold change in Apopt1-RNA stability at 0.1 mM measured by ChIP-seq analysis relative to control cells
[15] = molecular target: T1, RNA polymerase II (Mus musculus); test: Inhibition of RNA polymerase II in mouse B16-F1 migrating cells assessed as fold change in Ptpn4-RNA stability at 0.1 mM measured by ChIP-seq analysis relative to control cells
[16] = molecular target: T1, RNA polymerase II (Mus musculus); test: Inhibition of RNA polymerase II in mouse B16-F1 migrating cells assessed as fold change in Rps26-RNA stability at 0.1 mM measured by ChIP-seq analysis relative to control cells
[17] = molecular target: T1, RNA polymerase II (Mus musculus); test: Inhibition of RNA polymerase II in mouse B16-F1 migrating cells assessed as fold change in Ice1-RNA stability at 0.1 mM measured by ChIP-seq analysis relative to control cells
[18] = molecular target: T1, RNA polymerase II (Mus musculus); test: Inhibition of RNA polymerase II in mouse B16-F1 migrating cells assessed as fold change in Stil-RNA stability at 0.1 mM measured by ChIP-seq analysis relative to control cells
[19] = molecular target: T1, RNA polymerase II (Mus musculus); test: Inhibition of RNA polymerase II in mouse B16-F1 migrating cells assessed as fold change in Grina-RNA stability at 0.1 mM measured by ChIP-seq analysis relative to control cells
[20] = molecular target: T1, RNA polymerase II (Mus musculus); test: Inhibition of RNA polymerase II in mouse B16-F1 migrating cells assessed as fold change in Kansl1l-RNA stability at 0.1 mM measured by ChIP-seq analysis relative to control cells
[21] = molecular target: T1, RNA polymerase II (Mus musculus); test: Inhibition of RNA polymerase II in mouse B16-F1 migrating cells assessed as fold change in 4930430F08Rik-RNA stability at 0.1 mM measured by ChIP-seq analysis relative to control cells
[22] = molecular target: T1, RNA polymerase II (Mus musculus); test: Inhibition of RNA polymerase II in mouse B16-F1 migrating cells assessed as fold change in Atad2-RNA stability at 0.1 mM measured by ChIP-seq analysis relative to control cells
[23] = molecular target: T1, RNA polymerase II (Mus musculus); test: Inhibition of RNA polymerase II in mouse B16-F1 migrating cells assessed as fold change in Tcea1-RNA stability at 0.1 mM measured by ChIP-seq analysis relative to control cells
[24] = molecular target: T1, RNA polymerase II (Mus musculus); test: Inhibition of RNA polymerase II in mouse B16-F1 migrating cells assessed as fold change in Creb1-RNA stability at 0.1 mM measured by ChIP-seq analysis relative to control cells
[25] = molecular target: T1, RNA polymerase II (Mus musculus); test: Inhibition of RNA polymerase II in mouse B16-F1 migrating cells assessed as fold change in Nemf-RNA stability at 0.1 mM measured by ChIP-seq analysis relative to control cells
[26] = molecular target: T1, RNA polymerase II (Mus musculus); test: Inhibition of RNA polymerase II in mouse B16-F1 migrating cells assessed as fold change in Tmem123-RNA stability at 0.1 mM measured by ChIP-seq analysis relative to control cells
[27] = molecular target: T1, RNA polymerase II (Mus musculus); test: Inhibition of RNA polymerase II in mouse B16-F1 migrating cells assessed as fold change in Krtcap2-RNA stability at 0.1 mM measured by ChIP-seq analysis relative to control cells
[28] = molecular target: T1, RNA polymerase II (Mus musculus); test: Inhibition of RNA polymerase II in mouse B16-F1 migrating cells assessed as fold change in Twsg1-RNA stability at 0.1 mM measured by ChIP-seq analysis relative to control cells
[29] = molecular target: T1, RNA polymerase II (Mus musculus); test: Inhibition of RNA polymerase II in mouse B16-F1 migrating cells assessed as fold change in Erbin-RNA stability at 0.1 mM measured by ChIP-seq analysis relative to control cells
[30] = molecular target: T1, RNA polymerase II (Mus musculus); test: Inhibition of RNA polymerase II in mouse B16-F1 migrating cells assessed as fold change in Abhd17a-RNA stability at 0.1 mM measured by ChIP-seq analysis relative to control cells

Work on `CCCc1cc(C)[nH]c(=O)c1CNC(=O)c1cc(-c2ccnc(N3CCN(C)CC3)c2)cc2c1cnn2C(C)C` yielded a log2FC [1] of 0.74, a log2FC [2] of -0.39 and a log2FC [3] of 0.38. For the same compound, the log2FC [4] was -0.41, the log2FC [5] was -0.4 and the log2FC [6] was 0.78. For the same compound, the log2FC [7] was -0.57, the log2FC [8] was 0.47 and the log2FC [9] was -0.46. The log2FC [10] was -0.97, the log2FC [11] was 0.56 and the log2FC [12] was 0.41. It also gave a log2FC [13] of -0.55.
With `OC[C@H]1O[C@@H](n2cnc3cc(Cl)c(Cl)cc32)[C@H](O)[C@@H]1O` the log2FC [14] was 0.45, the log2FC [15] was -0.56 and the log2FC [16] was 0.5. For the same compound, the log2FC [17] was -0.53, the log2FC [18] was -0.71 and the log2FC [19] was 0.56. For the same compound, the log2FC [20] was -0.79, the log2FC [21] was -0.97 and the log2FC [22] was -0.97. It also gave a log2FC [23] of -0.54, a log2FC [24] of -0.47 and a log2FC [25] of -0.79. The log2FC [26] was -0.56, the log2FC [27] was 0.44 and the log2FC [28] was -0.45. It also gave a log2FC [29] of -0.79 and a log2FC [30] of 0.6.
